Some of the results follow.
Assays:
Assay in all cases: log2 fold change, soluble protein after heating vs DMSO (PISA); higher = thermal stabilisation; K562 lysate, 10 uM; active = over 0.2 and 3.5 SD of the protein, either way, in both replicates (recomputed)
lapatinib = compound: CS(=O)(=O)CCNCc1ccc(-c2ccc3ncnc(Nc4ccc(OCc5cccc(F)c5)c(Cl)c4)c3c2)o1 [lapatinib]
In short: (§1)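 Quantification was by TMTpro 16plex LC-MS/MS with equalised channel sums, applied to the supernatant after 21,000xg for 90 min. Samples were crude K562 extract at 1 mg/mL protein in PBS pH 7.4 with 1 mM MgCl2, treated with 10 μM compound for 30 min, heated for 3 min across 48°C-58°C, pooled and brought to 0.5% NP-40 at 4°C. Values are log-two fold changes in thermal stability relative to solvent controls, from duplicates.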

Chains of the proteins cited; added tags and fusions are not shown. Lines headed by an entry give the natural chain unless they say otherwise; changes in a name come on top.
UniProt Q01085: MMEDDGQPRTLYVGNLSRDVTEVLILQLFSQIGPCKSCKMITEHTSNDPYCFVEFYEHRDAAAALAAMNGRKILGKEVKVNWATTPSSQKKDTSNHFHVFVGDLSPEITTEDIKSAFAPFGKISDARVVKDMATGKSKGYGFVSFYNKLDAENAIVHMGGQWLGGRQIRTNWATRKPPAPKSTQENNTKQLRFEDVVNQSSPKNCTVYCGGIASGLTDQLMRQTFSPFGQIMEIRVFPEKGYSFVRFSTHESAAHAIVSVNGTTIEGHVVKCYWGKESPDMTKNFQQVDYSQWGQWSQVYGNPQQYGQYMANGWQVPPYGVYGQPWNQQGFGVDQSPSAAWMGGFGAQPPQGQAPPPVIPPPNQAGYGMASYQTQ
UniProt Q9BU02: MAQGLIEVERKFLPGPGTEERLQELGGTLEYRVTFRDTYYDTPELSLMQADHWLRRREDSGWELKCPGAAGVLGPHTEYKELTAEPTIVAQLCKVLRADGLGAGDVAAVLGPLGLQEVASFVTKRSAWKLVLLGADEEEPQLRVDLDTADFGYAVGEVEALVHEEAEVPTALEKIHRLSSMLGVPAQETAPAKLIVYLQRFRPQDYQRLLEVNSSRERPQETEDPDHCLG
UniProt P55061, whole entry, looked up: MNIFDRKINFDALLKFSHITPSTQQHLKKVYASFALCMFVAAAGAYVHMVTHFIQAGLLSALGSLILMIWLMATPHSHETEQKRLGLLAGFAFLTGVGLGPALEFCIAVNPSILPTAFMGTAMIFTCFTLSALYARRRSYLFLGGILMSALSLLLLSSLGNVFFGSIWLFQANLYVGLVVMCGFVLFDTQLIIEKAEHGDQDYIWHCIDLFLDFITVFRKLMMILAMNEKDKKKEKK
UniProt Q08117: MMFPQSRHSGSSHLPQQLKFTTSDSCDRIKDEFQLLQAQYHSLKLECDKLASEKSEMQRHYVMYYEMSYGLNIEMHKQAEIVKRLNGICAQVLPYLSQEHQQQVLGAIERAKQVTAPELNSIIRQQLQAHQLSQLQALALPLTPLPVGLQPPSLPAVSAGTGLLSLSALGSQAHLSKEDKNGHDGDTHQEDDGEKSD
UniProt Q3ZCQ8: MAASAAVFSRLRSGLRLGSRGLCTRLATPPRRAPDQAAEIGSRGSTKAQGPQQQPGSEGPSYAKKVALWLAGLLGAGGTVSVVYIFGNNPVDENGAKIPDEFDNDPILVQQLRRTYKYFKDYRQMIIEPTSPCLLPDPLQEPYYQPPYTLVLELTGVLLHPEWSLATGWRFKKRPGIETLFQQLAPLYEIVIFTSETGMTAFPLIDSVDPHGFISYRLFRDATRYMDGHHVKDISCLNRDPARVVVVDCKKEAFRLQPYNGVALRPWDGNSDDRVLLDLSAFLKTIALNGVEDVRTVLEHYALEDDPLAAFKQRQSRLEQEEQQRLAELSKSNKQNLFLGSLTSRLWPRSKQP
UniProt Q3LXA3: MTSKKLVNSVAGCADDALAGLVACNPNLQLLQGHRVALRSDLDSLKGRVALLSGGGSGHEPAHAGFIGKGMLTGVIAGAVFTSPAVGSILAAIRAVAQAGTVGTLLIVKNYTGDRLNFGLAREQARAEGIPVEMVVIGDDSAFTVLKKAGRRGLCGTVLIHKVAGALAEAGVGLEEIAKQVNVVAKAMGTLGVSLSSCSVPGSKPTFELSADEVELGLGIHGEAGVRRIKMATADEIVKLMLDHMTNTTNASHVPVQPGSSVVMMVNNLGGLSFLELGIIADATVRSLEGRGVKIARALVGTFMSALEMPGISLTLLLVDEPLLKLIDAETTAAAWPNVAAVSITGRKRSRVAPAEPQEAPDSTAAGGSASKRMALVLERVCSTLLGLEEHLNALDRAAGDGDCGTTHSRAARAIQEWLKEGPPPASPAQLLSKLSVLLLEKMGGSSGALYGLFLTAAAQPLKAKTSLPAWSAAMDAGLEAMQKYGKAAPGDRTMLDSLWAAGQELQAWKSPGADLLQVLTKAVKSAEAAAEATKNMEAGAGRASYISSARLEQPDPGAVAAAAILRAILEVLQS
UniProt Q9Y584: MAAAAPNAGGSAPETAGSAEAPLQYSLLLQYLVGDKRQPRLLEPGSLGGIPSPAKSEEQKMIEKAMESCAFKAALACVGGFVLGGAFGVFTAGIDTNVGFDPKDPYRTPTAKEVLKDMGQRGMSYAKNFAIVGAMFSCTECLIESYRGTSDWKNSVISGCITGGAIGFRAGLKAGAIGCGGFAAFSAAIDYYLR
UniProt Q9BV44: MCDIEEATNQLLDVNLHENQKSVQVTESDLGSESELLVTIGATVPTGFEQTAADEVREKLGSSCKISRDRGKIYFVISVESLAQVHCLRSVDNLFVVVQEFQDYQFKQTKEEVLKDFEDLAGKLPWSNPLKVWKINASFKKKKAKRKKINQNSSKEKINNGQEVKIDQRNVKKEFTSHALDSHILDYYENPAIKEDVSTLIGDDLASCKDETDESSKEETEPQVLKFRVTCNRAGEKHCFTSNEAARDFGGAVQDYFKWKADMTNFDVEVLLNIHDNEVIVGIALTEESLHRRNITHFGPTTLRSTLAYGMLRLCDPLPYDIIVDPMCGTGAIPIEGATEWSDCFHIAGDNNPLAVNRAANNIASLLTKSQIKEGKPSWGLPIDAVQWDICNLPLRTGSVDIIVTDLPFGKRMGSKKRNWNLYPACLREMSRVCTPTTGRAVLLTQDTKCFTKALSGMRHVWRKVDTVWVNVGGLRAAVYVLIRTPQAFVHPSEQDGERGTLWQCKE
UniProt Q9H0V1: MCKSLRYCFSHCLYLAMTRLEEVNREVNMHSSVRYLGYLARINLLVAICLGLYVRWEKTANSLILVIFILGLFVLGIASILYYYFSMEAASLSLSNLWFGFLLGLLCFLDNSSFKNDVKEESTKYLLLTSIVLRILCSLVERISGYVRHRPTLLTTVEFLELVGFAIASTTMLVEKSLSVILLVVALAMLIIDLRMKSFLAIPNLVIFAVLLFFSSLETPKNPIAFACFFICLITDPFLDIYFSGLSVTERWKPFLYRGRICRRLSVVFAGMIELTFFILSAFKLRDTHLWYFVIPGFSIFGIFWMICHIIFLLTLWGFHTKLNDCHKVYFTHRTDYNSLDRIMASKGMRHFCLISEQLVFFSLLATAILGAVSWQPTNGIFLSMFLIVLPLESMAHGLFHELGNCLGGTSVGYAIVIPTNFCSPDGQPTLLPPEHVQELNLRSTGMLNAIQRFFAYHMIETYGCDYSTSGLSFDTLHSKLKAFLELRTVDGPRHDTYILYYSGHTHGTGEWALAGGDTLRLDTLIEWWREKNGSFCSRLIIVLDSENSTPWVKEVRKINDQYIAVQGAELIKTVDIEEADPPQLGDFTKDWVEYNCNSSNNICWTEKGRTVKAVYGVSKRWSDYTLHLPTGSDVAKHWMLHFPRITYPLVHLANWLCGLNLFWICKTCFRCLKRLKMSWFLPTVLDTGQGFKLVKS
UniProt Q9UKI8: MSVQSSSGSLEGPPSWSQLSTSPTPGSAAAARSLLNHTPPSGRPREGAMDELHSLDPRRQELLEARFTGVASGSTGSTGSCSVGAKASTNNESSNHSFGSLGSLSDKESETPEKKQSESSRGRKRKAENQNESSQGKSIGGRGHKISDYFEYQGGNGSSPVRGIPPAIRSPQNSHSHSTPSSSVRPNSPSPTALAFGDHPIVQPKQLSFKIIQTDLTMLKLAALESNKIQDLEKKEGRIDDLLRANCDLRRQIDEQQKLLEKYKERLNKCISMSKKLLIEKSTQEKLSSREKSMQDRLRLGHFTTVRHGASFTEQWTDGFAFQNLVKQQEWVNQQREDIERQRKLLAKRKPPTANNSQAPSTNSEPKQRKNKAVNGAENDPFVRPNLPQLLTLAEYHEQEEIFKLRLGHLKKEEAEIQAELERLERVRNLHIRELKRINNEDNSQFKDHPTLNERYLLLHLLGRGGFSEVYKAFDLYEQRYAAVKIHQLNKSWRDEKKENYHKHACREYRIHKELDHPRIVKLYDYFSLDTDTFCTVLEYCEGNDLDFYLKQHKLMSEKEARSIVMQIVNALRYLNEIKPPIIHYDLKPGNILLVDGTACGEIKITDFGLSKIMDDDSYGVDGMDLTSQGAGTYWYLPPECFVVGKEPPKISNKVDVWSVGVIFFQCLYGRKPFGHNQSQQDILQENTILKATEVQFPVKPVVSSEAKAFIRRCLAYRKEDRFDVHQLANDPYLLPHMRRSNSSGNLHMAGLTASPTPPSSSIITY
UniProt O14925: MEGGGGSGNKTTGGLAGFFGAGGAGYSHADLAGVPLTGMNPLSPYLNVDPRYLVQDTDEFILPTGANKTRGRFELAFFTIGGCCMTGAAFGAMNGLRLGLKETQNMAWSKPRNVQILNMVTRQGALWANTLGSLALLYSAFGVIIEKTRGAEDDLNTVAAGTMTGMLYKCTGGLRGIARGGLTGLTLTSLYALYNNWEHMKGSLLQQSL
UniProt Q86UE8, whole entry, looked up: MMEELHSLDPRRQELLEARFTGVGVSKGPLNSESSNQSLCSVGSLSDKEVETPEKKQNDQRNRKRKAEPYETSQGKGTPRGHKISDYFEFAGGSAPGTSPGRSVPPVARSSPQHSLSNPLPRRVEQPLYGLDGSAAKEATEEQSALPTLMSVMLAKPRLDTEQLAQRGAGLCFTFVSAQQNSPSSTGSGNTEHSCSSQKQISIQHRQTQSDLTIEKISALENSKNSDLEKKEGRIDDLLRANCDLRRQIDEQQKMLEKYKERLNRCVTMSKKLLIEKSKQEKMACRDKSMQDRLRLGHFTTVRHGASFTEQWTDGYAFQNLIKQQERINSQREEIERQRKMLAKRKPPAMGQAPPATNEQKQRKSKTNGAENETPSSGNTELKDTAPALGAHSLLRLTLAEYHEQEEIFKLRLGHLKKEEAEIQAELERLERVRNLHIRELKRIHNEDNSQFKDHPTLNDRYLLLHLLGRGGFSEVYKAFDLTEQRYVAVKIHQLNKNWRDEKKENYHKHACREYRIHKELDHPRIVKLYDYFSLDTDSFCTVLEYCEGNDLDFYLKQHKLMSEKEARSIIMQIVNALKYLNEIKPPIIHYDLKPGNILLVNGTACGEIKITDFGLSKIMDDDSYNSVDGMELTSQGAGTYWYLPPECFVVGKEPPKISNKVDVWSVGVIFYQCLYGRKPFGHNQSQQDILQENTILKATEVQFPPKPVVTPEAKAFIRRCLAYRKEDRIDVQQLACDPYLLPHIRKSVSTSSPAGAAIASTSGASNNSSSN
UniProt O43615: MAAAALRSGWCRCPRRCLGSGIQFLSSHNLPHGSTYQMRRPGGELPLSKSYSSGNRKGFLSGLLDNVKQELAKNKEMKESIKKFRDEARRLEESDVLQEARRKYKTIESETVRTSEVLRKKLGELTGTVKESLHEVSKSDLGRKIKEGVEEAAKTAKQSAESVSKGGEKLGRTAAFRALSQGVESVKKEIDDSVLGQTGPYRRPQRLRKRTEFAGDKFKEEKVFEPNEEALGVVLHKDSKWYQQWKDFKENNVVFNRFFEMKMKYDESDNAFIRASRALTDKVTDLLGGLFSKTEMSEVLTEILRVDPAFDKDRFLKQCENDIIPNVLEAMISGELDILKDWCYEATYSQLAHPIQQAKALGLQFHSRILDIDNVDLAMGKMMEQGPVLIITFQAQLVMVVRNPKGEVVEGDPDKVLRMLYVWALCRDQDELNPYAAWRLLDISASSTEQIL
UniProt Q9Y2W1: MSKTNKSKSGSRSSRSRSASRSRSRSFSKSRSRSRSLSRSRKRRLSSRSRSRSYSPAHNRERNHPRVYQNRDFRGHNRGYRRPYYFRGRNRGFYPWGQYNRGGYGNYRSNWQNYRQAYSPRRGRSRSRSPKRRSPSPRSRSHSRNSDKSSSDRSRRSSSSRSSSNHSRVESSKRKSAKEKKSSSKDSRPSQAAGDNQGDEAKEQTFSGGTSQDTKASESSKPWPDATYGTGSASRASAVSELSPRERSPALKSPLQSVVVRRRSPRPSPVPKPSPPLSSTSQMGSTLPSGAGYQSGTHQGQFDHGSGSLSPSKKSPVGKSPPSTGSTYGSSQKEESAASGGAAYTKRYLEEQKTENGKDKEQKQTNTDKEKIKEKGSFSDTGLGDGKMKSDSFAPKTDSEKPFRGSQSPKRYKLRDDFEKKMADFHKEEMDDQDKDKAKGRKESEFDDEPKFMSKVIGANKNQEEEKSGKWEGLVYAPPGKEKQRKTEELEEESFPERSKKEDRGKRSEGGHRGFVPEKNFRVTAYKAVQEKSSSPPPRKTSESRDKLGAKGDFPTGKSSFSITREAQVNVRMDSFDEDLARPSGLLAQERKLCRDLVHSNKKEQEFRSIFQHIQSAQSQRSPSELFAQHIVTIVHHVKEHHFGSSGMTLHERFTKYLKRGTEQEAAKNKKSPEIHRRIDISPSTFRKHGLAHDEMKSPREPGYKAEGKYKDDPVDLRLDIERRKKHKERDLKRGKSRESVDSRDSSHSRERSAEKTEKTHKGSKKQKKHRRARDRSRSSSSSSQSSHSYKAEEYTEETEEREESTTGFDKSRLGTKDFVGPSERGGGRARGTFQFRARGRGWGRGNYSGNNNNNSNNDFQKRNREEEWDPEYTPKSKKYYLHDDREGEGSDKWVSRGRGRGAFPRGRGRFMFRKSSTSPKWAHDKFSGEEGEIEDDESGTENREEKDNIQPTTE

pictilisib = compound: CS(=O)(=O)N1CCN(Cc2cc3nc(-c4cccc5[nH]ncc45)nc(N4CCOCC4)c3s2)CC1 [pictilisib]
In short: as §1

crizotinib = compound: C[C@@H](Oc1cc(-c2cnn(C3CCNCC3)c2)cnc1N)c1c(Cl)ccc(F)c1Cl [crizotinib]
In short: as §1

[1] = compound: C[C@H](C1=CC=C(C=C1)C(=O)NC2=C3C=CNC3=NC=C2)N
In short: as §1

duvelisib = compound: C[C@H](Nc1ncnc2nc[nH]c12)c1cc2cccc(Cl)c2c(=O)n1-c1ccccc1 [duvelisib]
In short: as §1

gandotinib = compound: Cc1cc(Nc2cc(CN3CCOCC3)c3nc(C)c(Cc4ccc(Cl)cc4F)n3n2)n[nH]1 [gandotinib]
In short: as §1

tozasertib = compound: Cc1cc(Nc2cc(N3CCN(C)CC3)nc(Sc3ccc(NC(=O)C4CC4)cc3)n2)n[nH]1 [tozasertib]
In short: as §1

doramapimod = compound: Cc1ccc(-n2nc(C(C)(C)C)cc2NC(=O)Nc2ccc(OCCN3CCOCC3)c3ccccc23)cc1 [doramapimod]
In short: as §1

bafetinib = compound: Cc1ccc(NC(=O)c2ccc(CN3CC[C@H](N(C)C)C3)c(C(F)(F)F)c2)cc1Nc1nccc(-c2cncnc2)n1 [bafetinib]
In short: as §1

[2] = compound: Cc1cccc(CC(=O)N2CCc3c2ccc(-c2cn(C)c4ncnc(N)c24)c3F)n1
In short: as §1

nilotinib = compound: Cc1cn(-c2cc(NC(=O)c3ccc(C)c(Nc4nccc(-c5cccnc5)n4)c3)cc(C(F)(F)F)c2)cn1 [nilotinib]
In short: as §1

[3] = compound: Cc1nc(Nc2n[nH]c3c2CN(C(=O)N[C@H](CN(C)C)c2ccccc2)C3(C)C)c2sccc2n1
In short: as §1

dasatinib = compound: Cc1nc(Nc2ncc(C(=O)Nc3c(C)cccc3Cl)s2)cc(N2CCN(CCO)CC2)n1 [dasatinib]
In short: as §1

[4] = compound: Cc1ncc(-c2ccnc(Nc3ccc(S(C)(=O)=O)cc3)n2)n1C(C)C
In short: as §1

[5] = compound: Cn1cc(-c2ccc3c(c2)CCN3C(=O)Cc2cccc(C(F)(F)F)c2)c2c(N)ncnc21
In short: as §1

quisinostat = compound: Cn1cc(CNCC2CCN(c3ncc(C(=O)NO)cn3)CC2)c2ccccc21 [quisinostat]
In short: as §1

tipifarnib = compound: Cn1cncc1[C@@](N)(c1ccc(Cl)cc1)c1ccc2c(c1)c(-c1cccc(Cl)c1)cc(=O)n2C [tipifarnib]
In short: as §1

[6] = compound: NC(=O)Nc1cc(-c2cccc(F)c2)sc1C(=O)N[C@H]1CCCNC1
In short: as §1

[7] = compound: NC(=O)c1cnc(N[C@@H]2CCCC[C@@H]2N)nc1Nc1cccc(-n2nccn2)c1
In short: as §1

[8] = compound: NC1(c2ccc(-c3nc4ccn5c(=O)[nH]nc5c4cc3-c3ccccc3)cc2)CCC1
In short: as §1

Measured: log2 fold change

TIAL1 isoform 2 (UniProt Q01085)
inactive: lapatinib -0.013 | pictilisib -0.063 | crizotinib 0.038 | [1] -0.024 | duvelisib -0.014 | gandotinib 0.054 | tozasertib 0.011 | doramapimod 0.007 | bafetinib 0 | [2] 0.001 | [3] -0.013 | dasatinib 0.025 | [4] -0.015 | [5] 0.028 | quisinostat 0.039 | tipifarnib -0.037 | [6] -0.016 | [7] 0.004 | [8] 0.033
active: nilotinib -0.603

THTPA (UniProt Q9BU02)
inactive: lapatinib -0.099 | pictilisib 0.062 | crizotinib 0.039 | [1] 0.033 | duvelisib 0.055 | gandotinib -0.122 | tozasertib 0.009 | doramapimod -0.005 | bafetinib 0.047 | [2] -0.053 | nilotinib 0.077 | [3] -0.012 | dasatinib 0.044 | [4] 0.052 | [5] -0.023 | quisinostat 0.067 | tipifarnib -0.053 | [6] -0.031 | [7] -0.059 | [8] 0.009

TMBIM6 isoform 2 (UniProt P55061)
inactive: lapatinib -0.016 | pictilisib -0.033 | crizotinib -0.012 | [1] -0.054 | duvelisib -0.031 | gandotinib 0.002 | tozasertib 0.114 | doramapimod -0.056 | bafetinib -0.042 | [2] -0.012 | nilotinib 0.064 | [3] -0.039 | dasatinib 0.019 | [4] 0.056 | [5] 0.005 | quisinostat 0.06 | tipifarnib -0.058 | [6] -0.018 | [7] -0.007 | [8] 0.007

Reprinted at random: two entries already listed
THTPA (UniProt Q9BU02)
inactive: lapatinib -0.099 | pictilisib 0.062 | crizotinib 0.039 | [1] 0.033 | duvelisib 0.055 | gandotinib -0.122 | tozasertib 0.009 | doramapimod -0.005 | bafetinib 0.047 | [2] -0.053 | nilotinib 0.077 | [3] -0.012 | dasatinib 0.044 | [4] 0.052 | [5] -0.023 | quisinostat 0.067 | tipifarnib -0.053 | [6] -0.031 | [7] -0.059 | [8] 0.009

TMBIM6 isoform 2 (UniProt P55061)
inactive: lapatinib -0.016 | pictilisib -0.033 | crizotinib -0.012 | [1] -0.054 | duvelisib -0.031 | gandotinib 0.002 | tozasertib 0.114 | doramapimod -0.056 | bafetinib -0.042 | [2] -0.012 | nilotinib 0.064 | [3] -0.039 | dasatinib 0.019 | [4] 0.056 | [5] 0.005 | quisinostat 0.06 | tipifarnib -0.058 | [6] -0.018 | [7] -0.007 | [8] 0.007

The list continues:

TLE5 isoform 2 (UniProt Q08117)
inactive: lapatinib 0.077 | pictilisib -0.075 | crizotinib 0.006 | [1] 0.007 | duvelisib 0.052 | gandotinib 0.006 | tozasertib 0.119 | doramapimod 0.006 | bafetinib 0.03 | [2] 0.065 | nilotinib 0.094 | [3] -0.044 | dasatinib -0.058 | [4] 0.03 | [5] -0.013 | quisinostat -0.052 | tipifarnib 0.005 | [6] 0.024 | [7] -0.037 | [8] -0.056

TIMM50 isoform 2 (UniProt Q3ZCQ8)
inactive: lapatinib -0.036 | pictilisib -0.013 | crizotinib -0.023 | [1] 0.01 | duvelisib 0.011 | gandotinib -0.147 | tozasertib 0.01 | doramapimod 0.024 | bafetinib 0.041 | [2] 0.022 | nilotinib -0.005 | [3] -0.011 | dasatinib -0.007 | [4] -0.091 | [5] -0.02 | quisinostat -0.049 | tipifarnib -0.065 | [6] 0.046 | [7] 0.015 | [8] -0.022

TKFC (UniProt Q3LXA3)
inactive: lapatinib -0.011 | pictilisib 0.02 | crizotinib -0.027 | [1] -0.039 | duvelisib -0.001 | gandotinib 0.031 | tozasertib -0.012 | doramapimod 0.016 | bafetinib 0.02 | [2] 0.022 | nilotinib -0.006 | [3] 0.003 | dasatinib 0.006 | [4] 0.027 | [5] -0.025 | quisinostat 0.016 | tipifarnib 0.015 | [6] -0.004 | [7] -0.023 | [8] -0.001

TIMM22 (UniProt Q9Y584)
inactive: lapatinib -0.036 | pictilisib -0.011 | crizotinib 0.134 | [1] -0.058 | duvelisib 0.03 | gandotinib 0.11 | tozasertib -0.02 | doramapimod -0.038 | bafetinib 0.021 | [2] -0.007 | nilotinib -0.062 | [3] 0.012 | dasatinib 0.057 | [4] -0.019 | [5] -0.04 | quisinostat 0.09 | tipifarnib 0.066 | [6] 0.026 | [7] 0.008 | [8] 0.062

TGM2 (UniProt P21980)
inactive: lapatinib -0.005 | pictilisib 0.005 | crizotinib -0.044 | [1] -0.008 | duvelisib 0.001 | gandotinib -0.021 | tozasertib -0.004 | doramapimod -0.007 | bafetinib -0.021 | [2] 0.02 | nilotinib -0.009 | [3] -0.021 | dasatinib 0 | [4] 0.006 | [5] 0.007 | quisinostat -0.042 | tipifarnib -0.012 | [6] 0.001 | [7] 0.019 | [8] -0.016

THUMPD3 (UniProt Q9BV44)
inactive: lapatinib -0.029 | pictilisib 0.004 | crizotinib -0.029 | [1] 0.004 | duvelisib 0.013 | gandotinib 0.017 | tozasertib -0.034 | doramapimod 0.017 | bafetinib 0.013 | [2] 0 | nilotinib 0.006 | [3] -0.007 | dasatinib 0.039 | [4] 0.002 | [5] -0.005 | quisinostat -0.076 | tipifarnib 0 | [6] -0.004 | [7] -0.016 | [8] 0.001

TMEM168 (UniProt Q9H0V1)
inactive: lapatinib 0.081 | pictilisib -0.032 | crizotinib -0.054 | [1] -0.125 | duvelisib 0.038 | gandotinib -0.01 | tozasertib -0.054 | doramapimod 0.025 | bafetinib -0.009 | [2] 0.048 | nilotinib -0.017 | [3] 0.047 | dasatinib 0.027 | [4] 0.082 | [5] -0.023 | quisinostat -0.045 | tipifarnib -0.104 | [6] -0.004 | [7] 0.116 | [8] -0.029

TLK1 isoform 2 (UniProt Q9UKI8)
inactive: lapatinib -0.047 | pictilisib 0.135 | crizotinib -0.061 | [1] -0.032 | duvelisib -0.048 | tozasertib 0.014 | doramapimod 0.011 | bafetinib -0.014 | [2] 0.022 | nilotinib -0.044 | dasatinib -0.005 | [4] 0.188 | [5] -0.036 | quisinostat -0.23 | tipifarnib 0.023 | [6] 0.133 | [7] 0.035 | [8] -0.021
active: gandotinib 0.456 | [3] 0.414

TIMM23 (UniProt O14925)
inactive: lapatinib 0.033 | pictilisib -0.029 | crizotinib -0.012 | [1] -0.052 | duvelisib -0.002 | gandotinib 0.004 | tozasertib 0 | doramapimod 0.003 | bafetinib -0.006 | [2] 0.063 | nilotinib 0.019 | [3] 0.056 | dasatinib 0.013 | [4] 0.027 | [5] -0.053 | quisinostat -0.05 | tipifarnib -0.016 | [6] 0.029 | [7] 0.042 | [8] 0.058

TLK2 isoform 2 (UniProt Q86UE8)
active: gandotinib 0.351
inactive: lapatinib -0.041 | pictilisib 0.112 | crizotinib -0.029 | [1] -0.115 | duvelisib -0.042 | tozasertib 0.126 | doramapimod 0.006 | bafetinib 0.004 | [2] 0.049 | nilotinib -0.008 | [3] 0.243 | dasatinib -0.004 | [4] 0.162 | [5] 0.007 | quisinostat -0.099 | tipifarnib 0.005 | [6] 0.073 | [7] 0.048 | [8] -0.035

TMED1 (UniProt Q13445)
inactive: lapatinib -0.042 | pictilisib 0.018 | crizotinib 0.078 | [1] 0.002 | duvelisib 0.001 | gandotinib -0.01 | tozasertib 0.018 | doramapimod -0.093 | bafetinib 0.013 | [2] 0.005 | nilotinib 0.056 | [3] 0.083 | dasatinib -0.034 | [4] -0.03 | [5] -0.107 | quisinostat 0.245 | tipifarnib -0.17 | [6] 0.002 | [7] 0.031 | [8] 0.099

TIMM44 (UniProt O43615)
inactive: lapatinib 0.04 | pictilisib 0.022 | crizotinib 0.055 | [1] 0.009 | duvelisib -0.003 | gandotinib 0.136 | tozasertib 0.019 | doramapimod 0.058 | bafetinib -0.067 | [2] 0.065 | nilotinib 0.082 | [3] -0.011 | dasatinib -0.087 | [4] 0.023 | [5] -0.028 | quisinostat 0.003 | tipifarnib -0.108 | [6] -0.058 | [7] 0 | [8] -0.031

THRAP3 (UniProt Q9Y2W1)
inactive: lapatinib -0.003 | pictilisib -0.008 | crizotinib 0.048 | [1] -0.139 | duvelisib 0.038 | gandotinib 0.016 | tozasertib 0.023 | doramapimod 0.007 | bafetinib -0.033 | [2] 0.078 | nilotinib 0 | [3] -0.027 | dasatinib -0.025 | [4] -0.003 | [5] 0.033 | quisinostat -0.025 | tipifarnib 0.045 | [6] -0.01 | [7] 0.011 | [8] 0.036

From the supplement of paper PMC10849652
